Laboratory results: PubChem BioAssay AID652272 (Drosophila RNAi Screening Center, 2013)

Screen: 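Genes whose knock-down decreases or increases Hedgehog reporter output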 (primary screen)
Cell system: Drosophila clone 8 (Cl8) cells
Reagent: long dsRNA against Drosophila genes
Read-out: 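Plate reader light from a firefly reporter under a ptc promoter fragment that responds to Hedgehog, with Renilla light as transfection reference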
Scale: firefly Hh reporter signal: higher = more ptc reporter light; Renilla reference signal: higher = more Renilla control light
Hit rule: 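Called a hit if the two-replicate mean z-score lies below -2 or above +3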
Calls: active = hit: reporter lowered or raised; inactive = not a hit
The deposit covers about 21,000 reagents; shown is a random part of those with a known target gene and a result. Of all reagents, 503 (2.4%) are marked active. 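Raw plate light values, not normalised; calls rest on replicate z-scores that were not deposited; hits include reporter decreases as well as increases.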 Unmarked entries are inactive. Names joined by + are all predicted targets of the reagent. Not stated in the record: the amount of reagent, the time to read-out.

Gene	DRSC id	firefly Hh reporter signal, replicate 1	firefly Hh reporter signal, replicate 2	firefly Hh reporter signal, replicate 3	Renilla reference signal, replicate 1	Renilla reference signal, replicate 2
Art6 (GeneID 41699)	DRSC16583	65904	81664		2652	1994
CG12674 (GeneID 33384)	DRSC00348	1.02e5	75712		2423	1811
CG33229 (GeneID 2768996)	DRSC07863	1.37e5	3.10e5		3941	12828
Vtld + CG42529	DRSC10102	1.33e5	1.22e5		4748	3421
CG15186 (GeneID 40797)	DRSC12566	55776	1.01e5		2368	3097
E(z) (GeneID 39203)	DRSC11147	88409	98752		4051	4144
Mocs2A + Mocs2B	DRSC13697	4.67e5	93784		3931	3931
Mocs2A + Mocs2B	DRSC14219	5.91e5	98307		30989	2896
CG9839 (GeneID 41055)	DRSC16574	1.46e5	80886		5613	3572
psd (GeneID 33830)	DRSC03131	1.67e5	54402		4198	5920
Sec71 (GeneID 34785)	DRSC01893	1.25e5	48230		3435	4761
CG34164 (GeneID 5740394)	DRSC02837	93927	62113		2261	5040
RhoU (GeneID 31945)	DRSC17635	8.47e5	3.58e5		50483	7419
RhoU (GeneID 31945)	DRSC17803	55208	1.73e5		1296	6624
RhoU (GeneID 31945)	DRSC17804	1.19e5	7.59e5	3.08e5	3045	7492
CG7120 (GeneID 38954)	DRSC08921	1.04e5	1.64e5		3133	7883
CG7120 (GeneID 38954)	DRSC10773	51034	56852		5846	4738
Srx (GeneID 32768)	DRSC20005	92722	2.44e5		2981	9936
CG3594 (GeneID 37964)	DRSC04393	1.62e5	72209		6250	2230
CG8517 (GeneID 37268)	DRSC07205	1.02e5	85296		2848	6933
CG11986 (GeneID 41083)	DRSC14461	1.07e5	82232		4114	3442
RpL37-2 (GeneID 37669)	DRSC04584	1.05e5	62217		2978	5392
ps (GeneID 44258)	DRSC15149	54903	91515		1700	2528
ps (GeneID 44258)	DRSC15151	55191	46771		1875	1488
ps (GeneID 44258)	DRSC15152	62500	65660		2249	2068
ps (GeneID 44258)	DRSC16388	50860	92291		852	2448
CG13685 (GeneID 38869)	DRSC10043	60176	84546		7011	5813
CG13306 (GeneID 50301)	DRSC09976	49895	50080		4347	3765
CG10338 (GeneID 35124)	DRSC02039	64733	60836		1712	5057
Flacc (GeneID 32886)	DRSC20040	1.19e5	88116		3168	2668
Ranbp16 (GeneID 118436)	DRSC20160	84497	2.23e5		1730	9740
MFS18 (GeneID 33650)	DRSC00452	1.17e5	76742		6128	3324
CG34256 (GeneID 5740297)	DRSC09582	4.14e5			7093	
CG33796 (GeneID 3771914)	DRSC09417	2.36e5			4944	
obst-E (GeneID 33806)	DRSC02128	1.12e5	59960		3424	2469
CG10939 (GeneID 44155)	DRSC06019	77939	1.15e5		4000	3996
Pbp95 (GeneID 40949)	DRSC15448	93228	88227		4098	2887
CG18048 (GeneID 40782)	DRSC12573	64570	92921		2272	2784
RpS10b (GeneID 32953)	DRSC19561	2.72e5 (active)	1.56e5	3.65e5	3177	6165
CG10177 (GeneID 42772)	DRSC14201	5.70e5	80328		26124	2067
Naa15-16 (GeneID 32934)	DRSC19440	5.79e5	7.47e5	98875	4226	4579
CG14805 (GeneID 31146)	DRSC18554	96912	2.07e5		4085	8065
CG6484 (GeneID 36994)	DRSC06991	91506	93664		4424	4131
CG33155 + mRpL53	DRSC05461	1.17e5	2.67e5		8056	10897
CG32036 (GeneID 39105)	DRSC10362	81131	45449		3709	1684
CG31176 (GeneID 42554)	DRSC15038	9.09e5	1.59e5		41561	3122
CG31176 (GeneID 42554)	DRSC16021	5.50e5	1.54e5		28644	2277
jim (GeneID 43924)	DRSC11889	1.72e5	1.33e5		5856	4221
Atg6 (GeneID 42850)	DRSC15798	90396	83947		3795	3440
js (GeneID 41986)	DRSC15004	84691	96432		1900	2208
Mettl2 (GeneID 38197)	DRSC08398	1.31e5	76145		5417	3378
Prx1 (GeneID 39658)	DRSC10741	81491			2897	2141
CG31871 (GeneID 34463)	DRSC02567	1.03e5	50115		2357	3911
CG31871 (GeneID 34463)	DRSC02571	1.05e5	48455		1868	3717
Pif1 (GeneID 33567)	DRSC00582	80624	65184		4691	3026
RpL37A (GeneID 44783)	DRSC02899	49680 (active)	23948		2299	3891
SAK (GeneID 40384)	DRSC11879	84422	69899		2881	1972

3 entries already listed, sorted by “firefly Hh reporter signal, replicate 2”, lowest first.
Gene	DRSC id	firefly Hh reporter signal, replicate 1	firefly Hh reporter signal, replicate 2	firefly Hh reporter signal, replicate 3	Renilla reference signal, replicate 1	Renilla reference signal, replicate 2
CG10338 (GeneID 35124)	DRSC02039	64733	60836		1712	5057
Flacc (GeneID 32886)	DRSC20040	1.19e5	88116		3168	2668
Ranbp16 (GeneID 118436)	DRSC20160	84497	2.23e5		1730	9740
